Laboratory results: US20150073033A1, “BIOMARKERS FOR CANCER CHARACTERIZATION AND TREATMENT” (Board of Regents, The University of Texas System, priority 2011, published 2015)
Results are given in words; binding and its absence hold for the method and conditions named. For some assays here: In cells and extracts the contact can be indirect. Some entries that bind do so weakly or less than the wild type. For some assays here: Sequences can lack the tags named with a protein.

The chains behind the UniProt entries cited, without tags or fusion partners.
UniProt Q02156: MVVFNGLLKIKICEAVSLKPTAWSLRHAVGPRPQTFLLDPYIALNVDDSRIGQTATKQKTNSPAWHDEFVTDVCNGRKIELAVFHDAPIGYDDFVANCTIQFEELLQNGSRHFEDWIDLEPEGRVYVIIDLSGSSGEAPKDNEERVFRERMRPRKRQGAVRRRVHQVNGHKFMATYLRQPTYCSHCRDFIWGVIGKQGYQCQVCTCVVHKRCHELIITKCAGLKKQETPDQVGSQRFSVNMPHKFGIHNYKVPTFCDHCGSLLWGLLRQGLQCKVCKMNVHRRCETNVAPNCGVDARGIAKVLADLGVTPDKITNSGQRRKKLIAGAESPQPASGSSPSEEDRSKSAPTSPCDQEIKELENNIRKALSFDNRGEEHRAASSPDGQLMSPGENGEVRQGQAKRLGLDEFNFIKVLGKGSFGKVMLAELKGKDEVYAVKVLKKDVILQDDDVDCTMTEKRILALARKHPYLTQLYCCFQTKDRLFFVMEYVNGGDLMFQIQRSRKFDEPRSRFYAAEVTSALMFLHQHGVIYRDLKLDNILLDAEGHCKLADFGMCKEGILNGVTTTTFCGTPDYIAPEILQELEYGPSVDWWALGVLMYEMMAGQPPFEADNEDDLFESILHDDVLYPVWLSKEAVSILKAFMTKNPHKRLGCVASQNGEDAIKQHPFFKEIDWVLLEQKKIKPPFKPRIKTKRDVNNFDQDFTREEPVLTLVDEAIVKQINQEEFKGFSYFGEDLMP

Assays:
[1] = biological target: endogenous PKCε (U87/EGFR or U251 cells) (human) (UniProt Q02156); assay: IP of PKCε, anti-IKKβ immunoblot, U87/EGFR or U251 cells
purified active GST-PKCε = purified active GST-PKCε (UniProt Q02156); assay: His pull-down on nickel agarose beads, purified proteins

binding [1]	binding (purified active GST-PKCε)	Binder
binds	–	endogenous IKKβ (U87/EGFR or U251 cells) (enzyme, human, UniProt O14920 1-756, looked up) MSWSPSLTTQTCGAWEMKERLGTGGFGNVIRWHNQETGEQIAIKQCRQELSPRNRERWCLEIQIMRRLTHPNVVAARDVPEGMQNLAPNDLPLLAMEYCQGGDLRKYLNQFENCCGLREGAILTLLSDIASALRYLHENRIIHRDLKPENIVLQQGEQRLIHKIIDLGYAKELDQGSLCTSFVGTLQYLAPELLEQQKYTVTVDYWSFGTLAFECITGFRPFLPNWQPVQWHSKVRQKSEVDIVVSEDLNGTVKFSSSLPYPNNLNSVLAERLEKWLQLMLMWHPRQRGTDPTYGPNGCFKALDDILNLKLVHILNMVTGTIHTYPVTEDESLQSLKARIQQDTGIPEEDQELLQEAGLALIPDKPATQCISDGKLNEGHTLDMDLVFLFDNSKITYETQISPRPQPESVSCILQEPKRNLAFFQLRKVWGQVWHSIQTLKEDCNRLQQGQRAAMMNLLRNNSCLSKMKNSMASMSQQLKAKLDFFKTSIQIDLEKYSEQTEFGITSDKLLLAWREMEQAVELCGRENEVKLLVERMMALQTDIVDLQRSPMGRKQGGTLDDLEEQARELYRRLREKPRDQRTEGDSQEMVRLLLQAIQSFEKKVRVIYTQLSKTVVCKQKALELLPKVEEVVSLMNEDEKTVVRLQEKRQKELWNLLKIACSKVRGPVSGSPDSMNASRLSQPGQLMSQPSTASNSLPEPAKKSEELVAEAHNLCTLLENAIQDTVREQDQSFTALDWSWLQTEEEEHSCLEQAS
–	binds	bacterially purified His-IKKβ (enzyme, human, UniProt O14920 1-756, looked up, not shown: small tags and cut ends) MSWSPSLTTQTCGAWEMKERLGTGGFGNVIRWHNQETGEQIAIKQCRQELSPRNRERWCLEIQIMRRLTHPNVVAARDVPEGMQNLAPNDLPLLAMEYCQGGDLRKYLNQFENCCGLREGAILTLLSDIASALRYLHENRIIHRDLKPENIVLQQGEQRLIHKIIDLGYAKELDQGSLCTSFVGTLQYLAPELLEQQKYTVTVDYWSFGTLAFECITGFRPFLPNWQPVQWHSKVRQKSEVDIVVSEDLNGTVKFSSSLPYPNNLNSVLAERLEKWLQLMLMWHPRQRGTDPTYGPNGCFKALDDILNLKLVHILNMVTGTIHTYPVTEDESLQSLKARIQQDTGIPEEDQELLQEAGLALIPDKPATQCISDGKLNEGHTLDMDLVFLFDNSKITYETQISPRPQPESVSCILQEPKRNLAFFQLRKVWGQVWHSIQTLKEDCNRLQQGQRAAMMNLLRNNSCLSKMKNSMASMSQQLKAKLDFFKTSIQIDLEKYSEQTEFGITSDKLLLAWREMEQAVELCGRENEVKLLVERMMALQTDIVDLQRSPMGRKQGGTLDDLEEQARELYRRLREKPRDQRTEGDSQEMVRLLLQAIQSFEKKVRVIYTQLSKTVVCKQKALELLPKVEEVVSLMNEDEKTVVRLQEKRQKELWNLLKIACSKVRGPVSGSPDSMNASRLSQPGQLMSQPSTASNSLPEPAKKSEELVAEAHNLCTLLENAIQDTVREQDQSFTALDWSWLQTEEEEHSCLEQAS
